Values as published with doi:10.1371/journal.pone.0140310, rounded.

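Human melanoma cells were exposed to two drugs together for 72 h in 1,536-well plates and read by automated microscopy after fixing and staining. The read-out is the fraction of cleaved-PARP-positive nuclei, in % of that fraction in the DMSO control; 200 means twice the control level of this apoptosis marker. Concentrations were fixed for each drug; these are the higher of two levels. No replicate spread is given; individual values may be noisy. Basal and induced levels differ widely between cell lines.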
An unselected part of the screen is shown.

Drug key:
SNS-032: CC(C)(C)c1cnc(CSc2cnc(NC(=O)C3CCNCC3)s2)o1 at 50 nM
fludarabine: Nc1nc(F)nc2c1ncn2[C@@H]1O[C@H](CO)[C@@H](O)[C@@H]1O at 1000 nM
STA-4783: CN(NC(=O)CC(=O)NN(C)C(=S)c1ccccc1)C(=S)c1ccccc1 at 30 nM
SNS-314: O=C(Nc1cccc(Cl)c1)Nc1ncc(CCNc2ncnc3ccsc23)s1 at 4 nM
JZL184: O=C(Oc1ccc([N+](=O)[O-])cc1)N1CCC(C(O)(c2ccc3c(c2)OCO3)c2ccc3c(c2)OCO3)CC1 at 5000 nM
lapatinib: CS(=O)(=O)CCNCc1ccc(-c2ccc3ncnc(Nc4ccc(OCc5cccc(F)c5)c(Cl)c4)c3c2)o1 at 4000 nM
GW0742: Cc1cc(SCc2sc(-c3ccc(C(F)(F)F)c(F)c3)nc2C)ccc1OCC(=O)O at 10000 nM
OSU-03012: NCC(=O)Nc1ccc(-n2nc(C(F)(F)F)cc2-c2ccc3c(ccc4ccccc43)c2)cc1 at 5000 nM

With GW0742 + OSU-03012 the screen read LOX IMVI: 142; COLO 829: 120; IST-MEL1: 71.2; SK-MEL-28: 2760.
With JZL184 + SNS-314 the screen read LOX IMVI: 132; COLO 829: 35.0; IST-MEL1: 101; SK-MEL-28: 174.
With fludarabine + OSU-03012 the screen read LOX IMVI: 103; COLO 829: 197; IST-MEL1: 273; SK-MEL-28: 3300.
With lapatinib + fludarabine the screen read LOX IMVI: 134; COLO 829: 142; IST-MEL1: 227; SK-MEL-28: 1170.
With STA-4783 + GW0742 the screen read LOX IMVI: 41.0; COLO 829: 379; IST-MEL1: 410; SK-MEL-28: 651.
With fludarabine + GW0742 the screen read LOX IMVI: 120; COLO 829: 63.1; IST-MEL1: 86.7; SK-MEL-28: 680.
With lapatinib + OSU-03012 the screen read LOX IMVI: 312; COLO 829: 190; IST-MEL1: 128; SK-MEL-28: 1160.
With SNS-314 + fludarabine the screen read LOX IMVI: 230; COLO 829: 112; IST-MEL1: 214; SK-MEL-28: 2080.
With GW0742 + SNS-314 the screen read LOX IMVI: 176; COLO 829: 51.5; IST-MEL1: 113; SK-MEL-28: 306.
With SNS-314 + STA-4783 the screen read LOX IMVI: 94.3; COLO 829: 140; IST-MEL1: 171; SK-MEL-28: 94.2.
With SNS-032 + SNS-314 the screen read LOX IMVI: 122; COLO 829: 211; IST-MEL1: 109; SK-MEL-28: 136.
With STA-4783 + SNS-032 the screen read LOX IMVI: 104; COLO 829: 379; IST-MEL1: 113; SK-MEL-28: 180.
With GW0742 + JZL184 the screen read LOX IMVI: 69.3; COLO 829: 93.8; IST-MEL1: 42.2; SK-MEL-28: 47.4.
With SNS-314 + OSU-03012 the screen read LOX IMVI: 91.6; COLO 829: 228; IST-MEL1: 134; SK-MEL-28: 523.
With STA-4783 + JZL184 the screen read LOX IMVI: 153; COLO 829: 318; IST-MEL1: 321; SK-MEL-28: 404.
With SNS-032 + fludarabine the screen read LOX IMVI: 246; COLO 829: 120; IST-MEL1: 144; SK-MEL-28: 4130.
With OSU-03012 + JZL184 the screen read LOX IMVI: 82.9; COLO 829: 90.6; IST-MEL1: 129; SK-MEL-28: 853.
With SNS-032 + lapatinib the screen read LOX IMVI: 82.7; COLO 829: 43.5; IST-MEL1: 35.0; SK-MEL-28: 140.
With STA-4783 + lapatinib the screen read LOX IMVI: 158; COLO 829: 111; IST-MEL1: 727; SK-MEL-28: 284.
With JZL184 + lapatinib the screen read LOX IMVI: 88.7; COLO 829: 151; IST-MEL1: 80.3; SK-MEL-28: 119.
With fludarabine + STA-4783 the screen read LOX IMVI: 192; COLO 829: 342; IST-MEL1: 186; SK-MEL-28: 5810.
With JZL184 + SNS-032 the screen read LOX IMVI: 134; COLO 829: 81.7; IST-MEL1: 54.1; SK-MEL-28: 199.
With JZL184 + fludarabine the screen read LOX IMVI: 172; COLO 829: 124; IST-MEL1: 140; SK-MEL-28: 2040.
With SNS-032 + GW0742 the screen read LOX IMVI: 139; COLO 829: 59.7; IST-MEL1: 39.8; SK-MEL-28: 161.